Measured values: patent US20240376186A1
Results are given in words; binding and its absence hold for the method and conditions named. Binding calls can cover weak binding; strength is not graded here. Blank lines part the entries; values can stand above or below the binder they belong to.

Legend:
[1] = molecular target: iC3b; experiment: bio-layer interferometry, summary of affinities (FIG. 10)
[2] = molecular target: iC3b; experiment: bio-layer interferometry, binder on anti-penta his biosensors
[3] = molecular target: iC3b; experiment: bio-layer interferometry, EWEnH on anti-penta his biosensors, 6.25-100 nM iC3b
[4] = molecular target: iC3b; experiment: bio-layer interferometry, EWEµH on anti-penta his biosensors, 3.125-50 nM iC3b
[5] = molecular target: iC3b; experiment: bio-layer interferometry, EWE-hC3Nb1 on anti-penta his biosensors, 3.125-50 nM iC3b

binding [1]: binds | binding [2]: binds | binding [3]: binds
B1: EWEnH (protein, not shown: small tags and cut ends)
chain: EWEQVQLVETGGGLVQAGGSLRLSCAASGSIFSINAMGWFRQAPGKEREFVATINRSGGRTYYADSVKGRFTISRDNGKNMVYLQMHSLKPEDTAIYYCAAGTGWSPQTDNEYNYWGQGTQVTVSSGGGGSGGGGSGGGGSGGGGSRPCGHPGDTPFGTFTLTGGNVFEYGVKAVYTCNEGYQLLGEINYRECDTDGWTNDIPICEVVKCLPVTAPENGKIVSSAMEPDREYHFGQAVRFVCNSGYKIEGDEEMHCSDDGFWSKEKPKCVEISCKSPDVINGSPISQKIIYKENERFQYKCNMGYEYSERGDAVCTESGWRPLPSCEEA

binding [1]: binds | binding [2]: binds | binding [4]: binds
B2: EWEµH (protein, not shown: small tags and cut ends)
chain: EWEQVQLVETGGGLVQAGGSLRLSCAASGSIFSINAMGWFRQAPGKEREFVATINRSGGRTYYADSVKGRFTISRDNGKNMVYLQMHSLKPEDTAIYYCAAGTGWSPQTDNEYNYWGQGTQVTVSSGGGGSGGGGSGGGGSGGGGSRPCGHPGDTPFGTFTLTGGNVFEYGVKAVYTCNEGYQLLGEINYRECDTDGWTNDIPICEVVKCLPVTAPENGKIVSSAMEPDREYHFGQAVRFVCNSGYKIEGDEEMHCSDDGFWSKEKPKCVEISCKSPDVINGSPISQKIIYKENERFQYKCNMGYEYSERGDAVCTESGWRPLPSCEEAGGGGGGGGGGGGGKCGPPPPIDNGDITSFPLSVYAPASSVEYQCQNLYQLEGNKRITCRNGQWSEPPKCLHPCVISREIMENYNIALRWTAKQKLYSRTGESVEFVCKRGYRLSSRSHTLRTTCWDGKLEYPTCAKRENLYFQG

binding [1]: binds | binding [2]: binds | binding [5]: binds
B3: EWE-hC3Nb1 (VHH, not shown: small tags and cut ends)
VHH: QVQLVETGGGLVQAGGSLRLSCAASGSIFSINAMGWFRQAPGKEREFVATINRSGGRTYYADSVKGRFTISRDNGKNMVYLQMHSLKPEDTAIYYCAAGTGWSPQTDNEYNYWGQGTQVTVSS
